Taken from: PubChem BioAssay AID1259424 (University of Nebraska Medical Center, 2018)

Aim: 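Find knockdowns that reproduce the expression shifts seen after KSR1 loss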 (primary screen)
Cells: human HCT116 colon cancer cells
Reagent: siRNA pool against human genes, 50 nM
Detection: 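Six signature mRNAs by branched-DNA multiplex assay, scaled to two housekeeping genes and non-targeting median, log2; matched to mean KSR1 knockdown profile by Pearson correlation and euclidean distance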
Scale: mean correlation with KSR1 profile: higher = expression change more like KSR1 knockdown
Shown is an unselected part of about 14,000 reagents. 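Higher correlation or smaller distance means closer resemblance to KSR1 loss; control wells, including KSR1 knockdowns, recur on many plates.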 Not all columns of the deposit are shown. No sequences are given here. The record does not give: the time to read-out.

| Target gene | mean correlation with KSR1 profile |
| --- | --- |
| SMAP1 | -0.00957 |
| ECHDC1 | 0.000166 |
| SNCAIP | 0.268 |
| FOSL2 | 0.875 |
| SYNGR4 | 0.0486 |
| LIMA1 | -0.261 |
| POPDC1 | -0.728 |
| LILRA1 | -0.529 |
| HPF1 | -0.536 |
| TUBB7P | 0.162 |
| TANK | 0.235 |
| CLIC2 | -0.643 |
| CTSF | 0.0672 |
| F8A1 | -0.0881 |
| PKN2 | 0.0157 |
| HNRNPA1 | -0.473 |
| NDUFS4 | 0.51 |
| SKIC8 | 0.463 |
| ALDH3B2 | 0.225 |
| DVL2 | 0.00717 |
| IQGAP2 | 0.319 |
| SLC4A8 | 0.302 |
| AMELX | 0.821 |
| KIF5B | -0.366 |
| DENND4B | -0.148 |
| NICN1 | 0.614 |
| HAO2 | 0.436 |
| TRIM45 | 0.489 |
| PTPRT | 0.876 |
| ZNF821 | -0.2 |
| ZGPAT | 0.957 |
| VSIG2 | 0.537 |
| ZNF574 | -0.389 |
| FRMD1 | 0.669 |
| EPCIP | -0.435 |
| ITCH | -0.219 |
| CSF2RA | 0.203 |
| LAIR1 | -0.377 |
| PPP1R3C | -0.365 |
| MFNG | -0.142 |
| AKTIP | 0.0322 |
| LRRC49 | -0.523 |
| DIPK2B | 0.857 |
| VDAC2 | -0.0972 |
| KCTD5 | -0.457 |
| SDC1 | 0.173 |
| SARAF | 0.085 |
| ZNF195 | -0.233 |
| CISH | 0.82 |
| USH1C | -0.157 |
| NCAPH2 | -0.345 |
| CASP8 | -0.236 |
| FOXD3 | 0.289 |
| EDDM3A | 0.0317 |
| GTF3C2 | -0.274 |
| CAMKK1 | 0.159 |
| VAT1L | 0.155 |
| BAG3 | 0.371 |
| SP140 | -0.482 |
| ZFAND1 | 0.322 |
| SPAG8 | -0.374 |
| ZNF461 | -0.167 |
| HHEX | 0.625 |

Entries listed so far whose gene name begins with F or f (4):
| Target gene | mean correlation with KSR1 profile |
| --- | --- |
| FOSL2 | 0.875 |
| F8A1 | -0.0881 |
| FRMD1 | 0.669 |
| FOXD3 | 0.289 |
